The structures appear in SMILES notation. This is one part of the list. Shown are side measurements of this screen, not its main read-out; they come without a call. Most of these compounds were active or inconclusive in the main read-out, so they are no random draw. Words in brackets tell the shape of the fitted curve; partial curves, single points and poor fits give uncertain potencies.

Experimental findings from PubChem BioAssay AID2685 (National Center for Advancing Translational Sciences (NCATS), 2010) are described below.

A short description of this assay: qHTS Assay for Lipid Storage Modulators in Drosophila S3 Cells.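 For cell number change: cells counted by Cell Tracker Red CMTPX staining in the red channel.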 The settings on record: BODIPY lipid droplet fluorescence, 18-24 h; for cell number change: measured here: cell count max response, cells fed with added oleic acid. An outline of the steps:
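Drosophila S3 cells got compounds at several concentrations plus oleic acid (400 uM solution). Laser-scanning cytometry with 488 nm excitation read lipid droplets at 500-530 nm and cells at 575-640 nm. Percent activity was relative to 20 uM Triacsin C.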
On the technique in general: In qHTS, concentration-response curves come from the screen itself.

[1] abbreviates: measured here: cell number channel AC50, cells fed with added oleic acid.
[2] abbreviates: measured here: lipid fluorescence (Fed channel) AC50, cells fed with added oleic acid.

`COc1ccc(C(=O)Nc2ccc3cn[nH]c3c2)c(OC)c1`: the AC50 (as a rule, the concentration giving half of the maximal activity seen) under setting [1] was 0.461 µM [rising, full curve] and the AC50 under setting [2] is 29.1 µM [rising, single point].

Take `CCOC(=O)N1CCN(C(=O)C2CCN(S(=O)(=O)CC)CC2)CC1`: the cell number change is -8.44%. Moreover, the AC50 under setting [2] is 7.31 µM [falling, partial curve].

Consider `CCc1ccc2[nH]c(O)c(N=NC3=NC(=O)CS3)c2c1`, for which the cell number change was -6.62%. The AC50 under setting [2] is 7.31 µM [falling, partial curve, poor fit].

Turning to `CCC1(C(=O)c2ccccc2)C(c2ccc([N+](=O)[O-])cc2)C1(C(=O)OC)C(=O)OC` (stereo not given), the cell number change is -7.3%. The AC50 under setting [1] was 4.11 µM [rising, single point].

As for `Cc1ccccc1/C=N/NC(=O)CSc1nc2ccccc2o1`, the cell number change stood at 31.9%. Moreover, the AC50 under setting [1] is 9.2 µM [rising, partial curve]. Besides, the AC50 under setting [2] is 11.6 µM [rising, partial curve].

Turning to `Cn1c(=O)c(C(=O)NCCCc2ccccc2)c(O)c2ccccc21`, the cell number change is 3.44%. Under setting [2], the AC50 was 29.1 µM [rising, single point].

Turning to `CN(CC(=O)Nc1ccccc1Br)C(=O)c1cc(Cl)nc2ccccc12`, the cell number change amounted to 7.15%. Also, under setting [2], the AC50 is 2.06 µM [rising, full curve, poor fit].

As to `COc1ccccc1C1C(C(=O)c2cc3ccccc3o2)=C(O)C(=O)N1c1cc(C)on1` (stereo not given), the AC50 under setting [2] is 20.6 µM [rising, single point].

As to `COc1ccccc1NC(=O)Cc1csc(NC(=S)Nc2ccccc2)n1`, the cell number change was -18.4%. In addition, under setting [2], the concentration at half-maximal activity (AC50) is 0.116 µM [falling, full curve, poor fit].

As to `O=C(CN(c1ccc(F)cc1)S(=O)(=O)c1ccc2c(c1)OCCO2)NCc1ccncc1`, the cell number change was -25.4%. Besides, the AC50 under setting [2] was 18.4 µM [falling, partial curve, poor fit].

`COc1ccccc1/C=C1\SC(=S)N(CCC(=O)Nc2ccc(C(=O)O)c(O)c2)C1=O`: the cell number change is -34.8%. In addition, the AC50 under setting [1] was 0.206 µM [falling, full curve, poor fit].

Take `Cc1cccc(OCCNC(=O)c2ccc(Cl)c(S(=O)(=O)NCc3cccnc3)c2)c1`: the cell number change was -16.2%.

Take `O=C(COC(=O)C1CCN(c2ccc(C(F)(F)F)cn2)CC1)NC1CCCCC1`: the cell number change was -19.5%.

As for `O=C(Nc1nc2c(F)cccc2s1)c1ccc([N+](=O)[O-])o1`, the cell number change was -16.7%. The AC50 under setting [2] was 1.46 µM [falling, full curve].

Consider `COc1cc(C(=O)OCC(=O)NC(=O)NCc2ccccc2)ccc1OC(F)F`, for which the cell number change is -0.0808%. Further, under setting [2], the AC50 was 3.66 µM [rising, partial curve].

With `O=C(CS(=O)CC(=O)N(CC(=O)NC1CCCC1)c1ccccc1F)Nc1ccc(F)cc1` (stereo not given), the cell number change came to 9.57%. Moreover, the AC50 under setting [2] is 0.326 µM [rising, full curve].

On to `CN(Cc1cnn(C)c1)C(=O)CC1C(=O)NCCN1Cc1cccc(Oc2ccccc2)c1` (stereo not given), for which the cell number change worked out at 22.7%. For the same compound, the AC50 under setting [2] was 20.6 µM [rising, single point].

With `COc1ccc(NC(=O)CC2SC(=N)N(c3ccccc3)C2=O)c(OC)c1` (stereo not given), the cell number change was -7.95%. Besides, the AC50 under setting [1] is 2.31 µM [falling, partial curve]. For the same compound, the AC50 under setting [2] is 2.06 µM [falling, partial curve].

As to `Cn1cc(S(=O)(=O)NC2CCCCC2)c(=O)n(C)c1=O`, the cell number change is -14.2%. The AC50 under setting [2] is 20.6 µM [falling, partial curve].

For the compound `CNC(=S)N(CCc1ccc(OC)c(OC)c1)C1CC(=O)N(c2ccccc2)C1=O` (stereo not given), the cell number change amounted to 18.1%.

On to `COCCCN1C(=O)c2ccc(C(=O)OCC(=O)NCc3ccccc3OC)cc2C1=O`, for which the cell number change was -29.8%. Also, under setting [2], the AC50 was 11.6 µM [falling, partial curve, poor fit].

Consider `CCCC(CCC)C(=O)NCCN1CCOCC1`, for which the cell number change was 9.54%. Further, under setting [1], the AC50 is 0.82 µM [falling, full curve]. Further, under setting [2], the AC50 is 6.51 µM [falling, single point].

With `COc1ccc(NC2=NCC(=O)N2c2ccccc2)c(OC)c1`, the cell number change was 3.77%.

`Cc1ccc(C(=O)N2CCN(CCNC(=O)C(=O)Nc3ccc(Cl)cc3)CC2)cc1`: the cell number change is -30.1%. Under setting [1], the AC50 is 29.1 µM [falling, single point].

Turning to `CCOc1ccc(NC(=O)C2CCCN(C(=O)Nc3ccccc3)C2)cc1` (stereo not given), the cell number change was -2.87%.

Turning to `O=C(Nc1ccc([N+](=O)[O-])cc1)N1CCc2ccccc2C1`, the cell number change worked out at 16.1%. In addition, the AC50 under setting [2] is 6.51 µM [rising, single point].

Consider `COc1ccc(N2C(=O)CSC23C(=O)N2c4c(cccc43)C(C)=CC2(C)C)cc1` (stereo not given), for which the cell number change was -108%.

Regarding `CCn1nccc1C(=O)Nc1ccc(C)c(C)c1`, the cell number change was -11.4%. For the same compound, under setting [2], the AC50 is 5.8 µM [rising, full curve].

Turning to `CCN(CC)c1ccc(/C=N/n2c(-c3ccccc3Br)n[nH]c2=S)cc1`, the cell number change worked out at 20.6%. For the same compound, under setting [2], the AC50 was 8.2 µM [rising, partial curve].

Turning to `COc1cccc(-c2csc(N3CCN(S(=O)(=O)c4ccc(F)cc4)CC3)n2)c1`, the cell number change is -16.7%. Moreover, the AC50 under setting [2] is 0.00461 µM [falling, full curve, poor fit].

Consider `O=C(COC(=O)c1cn(-c2ccccc2)nc1-c1cccnc1)NC1CC1`, for which the AC50 under setting [1] is 1.84 µM [rising, partial curve, poor fit].

As to `COc1ccc(NC(=O)CSc2nnc3ccc(-c4cccnc4)nn23)c(OC)c1`, the cell number change stood at 43.3%. Also, under setting [1], the AC50 is 0.731 µM [rising, full curve].

For `CCn1c(SCC(=O)N/N=C/c2ccc(C)o2)nnc1-c1ccc(C(C)(C)C)cc1`, the AC50 under setting [2] was 2.06 µM [falling, partial curve, poor fit].

With `CCN(CC(=O)Nc1ccc2c(c1)OCCO2)C(=O)c1cccc(OCC(C)C)c1`, the cell number change was -4.82%. Further, the AC50 under setting [1] was 4.11 µM [falling, single point].

On to `O=C(CNCc1ccccc1)Nc1cccc(Cl)c1Cl`, for which the cell number change was determined as 19.7%.

Turning to `COc1ccc2[nH]c3c(c2c1)CCN1C(=O)N([C@@H](C)C(=O)NCCc2ccc(F)cc2)C(=O)[C@]31C`, the cell number change was -12.3%.

As for `O=C(CCc1nc2ccccc2c(=O)[nH]1)NNC(=O)COc1cccc(F)c1`, the cell number change is -4.29%.

On to `Cc1c(C(=O)N2CCN(C(c3ccccc3)c3ccccc3)CC2)oc2ccccc12`, for which the cell number change was -27.6%. Besides, the AC50 under setting [2] is 0.00517 µM [falling, full curve, poor fit].

On to `CS(=O)(=O)N(Cc1cc2ccccc2[nH]c1=O)C1CCCCC1`, for which the cell number change was -13.7%. For the same compound, the AC50 under setting [1] is 0.58 µM [rising, full curve]. Moreover, the AC50 under setting [2] was 1.46 µM [rising, single point].
